# These are yes or no findings as the source states them, for the method shown. In cells and extracts the contact can be indirect. Here binding means that the protein was enriched with, or labelled near, the bait; the list need not be complete.
# Protein sequences, listed by entry. Tags and fused reporters are not part of them.
# UniProt Q9UBB5: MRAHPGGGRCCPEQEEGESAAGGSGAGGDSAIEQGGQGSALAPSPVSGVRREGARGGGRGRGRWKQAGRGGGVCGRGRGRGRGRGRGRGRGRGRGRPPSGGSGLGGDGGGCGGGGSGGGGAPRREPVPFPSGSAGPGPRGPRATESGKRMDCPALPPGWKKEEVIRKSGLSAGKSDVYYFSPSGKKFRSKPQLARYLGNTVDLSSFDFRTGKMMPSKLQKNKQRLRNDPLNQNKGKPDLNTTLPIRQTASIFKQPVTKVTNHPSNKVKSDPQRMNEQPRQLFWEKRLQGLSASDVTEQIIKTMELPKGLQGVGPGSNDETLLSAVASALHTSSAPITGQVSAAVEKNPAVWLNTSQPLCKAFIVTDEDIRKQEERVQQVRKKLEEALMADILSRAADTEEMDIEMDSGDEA
# UniProt O14744: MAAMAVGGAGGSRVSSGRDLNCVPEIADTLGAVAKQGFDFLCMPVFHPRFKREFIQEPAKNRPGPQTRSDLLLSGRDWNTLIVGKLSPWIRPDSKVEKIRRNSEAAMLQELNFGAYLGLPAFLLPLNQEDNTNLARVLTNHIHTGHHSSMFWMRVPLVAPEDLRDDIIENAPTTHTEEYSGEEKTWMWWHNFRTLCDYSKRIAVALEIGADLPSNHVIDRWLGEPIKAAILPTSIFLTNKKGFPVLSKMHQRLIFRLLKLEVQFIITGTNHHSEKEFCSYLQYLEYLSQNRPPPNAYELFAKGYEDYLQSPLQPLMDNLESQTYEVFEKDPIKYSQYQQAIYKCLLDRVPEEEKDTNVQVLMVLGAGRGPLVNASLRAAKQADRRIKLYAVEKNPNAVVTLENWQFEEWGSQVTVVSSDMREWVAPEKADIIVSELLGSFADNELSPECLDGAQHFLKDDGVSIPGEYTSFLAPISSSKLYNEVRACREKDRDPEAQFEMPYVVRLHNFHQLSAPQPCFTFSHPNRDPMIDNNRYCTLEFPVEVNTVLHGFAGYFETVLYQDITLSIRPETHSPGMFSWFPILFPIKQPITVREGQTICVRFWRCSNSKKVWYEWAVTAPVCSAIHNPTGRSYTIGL
# UniProt Q9BQA1: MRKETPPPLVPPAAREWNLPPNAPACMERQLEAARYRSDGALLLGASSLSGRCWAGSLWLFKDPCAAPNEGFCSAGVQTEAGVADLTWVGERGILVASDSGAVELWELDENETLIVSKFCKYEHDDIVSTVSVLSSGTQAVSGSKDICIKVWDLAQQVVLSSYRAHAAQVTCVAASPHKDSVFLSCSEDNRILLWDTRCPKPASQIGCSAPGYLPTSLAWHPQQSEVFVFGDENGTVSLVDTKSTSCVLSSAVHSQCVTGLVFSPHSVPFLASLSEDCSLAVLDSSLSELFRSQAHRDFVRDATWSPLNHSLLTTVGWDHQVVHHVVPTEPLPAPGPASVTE
# How the values were obtained:
# MBD2a-TAPtag [1] = target: MBD2a-TAPtag (UniProt Q9UBB5); test: affinity purification with mass spectrometry; as a1, but with the corresponding whole-cell extract
# MBD2a-TAPtag [2] = target: MBD2a-TAPtag (UniProt Q9UBB5); test: affinity purification with mass spectrometry; TAP-tagged MBD2a or MBD2b as bait, expressed in MBD2KO HUDEP-2 cells; nuclear extract; affinity purification, gel bands, LC-MS; empty vector as control
substance,measurement,setting,value
PRMT5 (from UniProt O14744 1-637) (enzyme),binding,MBD2a-TAPtag [1],binds
same,binding,MBD2a-TAPtag [2],binds
MEP50 (from UniProt Q9BQA1 1-342),binding,MBD2a-TAPtag [1],binds
same,binding,MBD2a-TAPtag [2],binds

# Reference: article PMC10288633
